Paper PMC9322903

Molecular target: T1, Phosphoinositide-3-kinase (PI3K)-interacting protein 1 (PIK3IP1) (rat (endogenous in H9c2)) (UniProt Q56A20)
T1 sequence: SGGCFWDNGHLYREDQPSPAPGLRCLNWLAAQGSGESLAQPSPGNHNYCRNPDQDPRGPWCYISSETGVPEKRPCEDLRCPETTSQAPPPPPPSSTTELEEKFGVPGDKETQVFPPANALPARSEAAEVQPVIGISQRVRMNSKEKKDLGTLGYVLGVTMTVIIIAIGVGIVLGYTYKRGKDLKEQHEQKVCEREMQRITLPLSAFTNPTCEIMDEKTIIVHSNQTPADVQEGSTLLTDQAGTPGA
Experiment: co-IP; H9c2 cells lysed in NP-40 buffer with protease inhibitors; Dynabeads protein G with 10 μL of antibodies or rabbit IgG (mock IP); eluted proteins detected by Western blotting

With “p110γ (catalytic subunit of PI3Kγ) (rat (endogenous in H9c2))” the binding was “binds”.

Results are given in words; binding and its absence hold for the method and conditions named. Binding seen in cells or lysates may run through a third protein. A result given as binding can be weak or reduced; the word gives no strength.
